{
  "sequences": {"note": "Protein sequences, listed by entry. Tags and fused reporters are not part of them. Residues count along the entry.", "UniProt Q00987, residues 2-125": "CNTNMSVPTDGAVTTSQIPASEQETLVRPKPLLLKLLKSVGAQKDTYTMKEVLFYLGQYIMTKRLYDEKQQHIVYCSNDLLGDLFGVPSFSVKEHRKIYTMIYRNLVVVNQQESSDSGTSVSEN"},
  "source": "paper PMC6345774",
  "about": "“Kinetic and thermodynamic effects of phosphorylation on p53 binding to MDM2” (Scientific Reports, 2019)",
  "key": {"[1]": {"biological_target": "Ac-EeFdDLWeeLPEN-NH2 (P53-E18-D20-E24-E25) (human)", "test": "1D 1H-NMR line width; isolated peptide 1.5–2 mM, 10 °C, pH 4.5 (50 mM acetate buffer); line width as expected from the molecular weight; both purified"}, "[2]": {"biological_target": "T1, human MDM2 (residues 2–125) (human, UniProt Q00987 2-125)", "T1 construct": "MDM2 (murine double minute 2), human, N-terminal domain, residues 2-125; no tag is named; also called N-terminal domain of MDM2", "test": "condition: peptide 0.125 μM, MDM2 typically 1 μM to 3 μM; stopped-flow fluorescence; pseudo-first order, peptide 0.125 μM final, MDM2 in excess (typically 1 μM to 3 μM); Trp23 fluorescence, excitation 280 nm, 315 nm cut-off; 15 °C; 50 mM Tris-HCl pH 8.0, 250 mM NaCl, 0.5 mM TCEP; Kd as koff/kon assuming a two-state reaction; both purified"}, "[3]": {"biological_target": "Ac-EeFe…-NH2 (P53-E18-E20) (human)", "test": "1D 1H-NMR line width; isolated peptide 1.5–2 mM, 10 °C, pH 4.5 (50 mM acetate buffer); line width as expected from the molecular weight; both purified"}, "[4]": {"biological_target": "Ac-Ed…-NH2 (P53-D18) (human)", "test": "1D 1H-NMR line width; isolated peptide 1.5–2 mM, 10 °C, pH 4.5 (50 mM acetate buffer); line width as expected from the molecular weight; both purified"}, "[5]": {"biological_target": "Ac-ETFe…-NH2 (P53-E20) (human)", "test": "1D 1H-NMR line width; isolated peptide 1.5–2 mM, 10 °C, pH 4.5 (50 mM acetate buffer); line width as expected from the molecular weight; both purified"}, "[6]": {"biological_target": "Ac-Ee…-NH2 (P53-E18) (human)", "test": "1D 1H-NMR line width; isolated peptide 1.5–2 mM, 10 °C, pH 4.5 (50 mM acetate buffer); line width as expected from the molecular weight; both purified"}, "[7]": {"biological_target": "Ac-EeFd…-NH2 (P53-E18-D20) (human)", "test": "1D 1H-NMR line width; isolated peptide 1.5–2 mM, 10 °C, pH 4.5 (50 mM acetate buffer); line width as expected from the molecular weight; both purified"}},
  "note": "Results are given in words; binding and its absence hold for the method and conditions named.",
  "data": [
    {"binder": "EEFDDLWEELPEN (N-terminal acetyl; C-terminal amide)", "note": "[Ac-EeFdDLWeeLPEN-NH2 (P53-E18-D20-E24-E25)]", "values": [
      {"measurement": "binding", "setting": "[1]", "value": "no binding (tested: 1.5–2 mM)"},
      {"measurement": "binding", "setting": "[2]", "value": "no binding"}
    ]},
    {"binder": "EEFEDLWKLLPEN (N-terminal acetyl; C-terminal amide)", "note": "[Ac-EeFe…-NH2 (P53-E18-E20)]", "values": [
      {"measurement": "binding", "setting": "[3]", "value": "no binding (tested: 1.5–2 mM)"}
    ]},
    {"binder": "EDFSDLWKLLPEN (N-terminal acetyl; C-terminal amide)", "note": "[Ac-Ed…-NH2 (P53-D18)]", "values": [
      {"measurement": "binding", "setting": "[4]", "value": "no binding (tested: 1.5–2 mM)"}
    ]},
    {"binder": "ETFEDLWKLLPEN (N-terminal acetyl; C-terminal amide)", "note": "[Ac-ETFe…-NH2 (P53-E20)]", "values": [
      {"measurement": "binding", "setting": "[5]", "value": "no binding (tested: 1.5–2 mM)"}
    ]},
    {"binder": "EEFSDLWKLLPEN (N-terminal acetyl; C-terminal amide)", "note": "[Ac-Ee…-NH2 (P53-E18)]", "values": [
      {"measurement": "binding", "setting": "[6]", "value": "no binding (tested: 1.5–2 mM)"}
    ]},
    {"binder": "EEFDDLWKLLPEN (N-terminal acetyl; C-terminal amide)", "note": "[Ac-EeFd…-NH2 (P53-E18-D20)]", "values": [
      {"measurement": "binding", "setting": "[7]", "value": "no binding (tested: 1.5–2 mM)"}
    ]}
  ]
}
